log2 fold change data for 31 targets are collected here from the supplement of paper PMC10849652.

Protein sequences, listed by entry. Tags and fused reporters are not part of them. Lines headed by an entry give the natural chain unless they say otherwise; changes in a name come on top.
UniProt O75792: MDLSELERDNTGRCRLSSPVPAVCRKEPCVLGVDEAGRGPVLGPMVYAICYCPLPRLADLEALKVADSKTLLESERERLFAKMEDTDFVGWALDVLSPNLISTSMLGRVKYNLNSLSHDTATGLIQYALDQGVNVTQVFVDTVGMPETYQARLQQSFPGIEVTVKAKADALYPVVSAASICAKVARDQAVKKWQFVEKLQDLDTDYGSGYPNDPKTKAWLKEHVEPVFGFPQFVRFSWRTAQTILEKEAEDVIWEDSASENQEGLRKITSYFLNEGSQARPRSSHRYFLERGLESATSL
UniProt P46063: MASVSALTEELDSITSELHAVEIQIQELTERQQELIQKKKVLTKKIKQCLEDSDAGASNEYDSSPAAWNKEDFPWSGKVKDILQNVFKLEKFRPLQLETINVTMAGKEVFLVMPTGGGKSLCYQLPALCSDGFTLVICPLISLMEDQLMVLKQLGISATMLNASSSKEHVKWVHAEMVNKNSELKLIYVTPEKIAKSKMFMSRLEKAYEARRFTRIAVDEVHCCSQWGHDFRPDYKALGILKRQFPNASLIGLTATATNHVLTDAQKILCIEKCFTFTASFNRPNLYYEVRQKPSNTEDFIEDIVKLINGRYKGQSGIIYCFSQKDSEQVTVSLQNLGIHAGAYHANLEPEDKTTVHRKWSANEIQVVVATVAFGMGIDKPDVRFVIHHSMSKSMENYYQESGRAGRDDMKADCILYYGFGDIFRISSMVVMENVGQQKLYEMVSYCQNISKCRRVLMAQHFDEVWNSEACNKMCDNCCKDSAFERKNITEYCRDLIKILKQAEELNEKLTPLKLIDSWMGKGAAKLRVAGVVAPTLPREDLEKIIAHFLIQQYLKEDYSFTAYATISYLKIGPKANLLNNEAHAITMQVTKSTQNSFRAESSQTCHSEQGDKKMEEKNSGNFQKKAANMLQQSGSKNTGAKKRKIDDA
UniProt Q6NUM9: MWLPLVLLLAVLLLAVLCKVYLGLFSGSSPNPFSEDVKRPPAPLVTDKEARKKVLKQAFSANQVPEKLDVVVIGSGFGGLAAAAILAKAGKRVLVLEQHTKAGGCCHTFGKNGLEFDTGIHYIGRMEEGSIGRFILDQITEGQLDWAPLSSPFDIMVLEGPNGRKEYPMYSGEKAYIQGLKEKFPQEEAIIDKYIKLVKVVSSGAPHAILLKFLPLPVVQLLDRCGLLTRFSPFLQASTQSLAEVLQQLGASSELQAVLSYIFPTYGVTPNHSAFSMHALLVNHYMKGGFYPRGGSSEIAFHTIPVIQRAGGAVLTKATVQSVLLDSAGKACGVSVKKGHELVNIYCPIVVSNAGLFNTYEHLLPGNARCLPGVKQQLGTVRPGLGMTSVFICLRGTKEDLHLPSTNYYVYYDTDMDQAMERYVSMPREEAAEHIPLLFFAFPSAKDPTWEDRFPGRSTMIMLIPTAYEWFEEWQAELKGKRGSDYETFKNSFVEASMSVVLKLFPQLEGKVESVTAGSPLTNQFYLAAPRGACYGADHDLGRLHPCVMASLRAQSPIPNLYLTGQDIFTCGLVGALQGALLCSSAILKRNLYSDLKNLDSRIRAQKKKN
UniProt Q9BWE0: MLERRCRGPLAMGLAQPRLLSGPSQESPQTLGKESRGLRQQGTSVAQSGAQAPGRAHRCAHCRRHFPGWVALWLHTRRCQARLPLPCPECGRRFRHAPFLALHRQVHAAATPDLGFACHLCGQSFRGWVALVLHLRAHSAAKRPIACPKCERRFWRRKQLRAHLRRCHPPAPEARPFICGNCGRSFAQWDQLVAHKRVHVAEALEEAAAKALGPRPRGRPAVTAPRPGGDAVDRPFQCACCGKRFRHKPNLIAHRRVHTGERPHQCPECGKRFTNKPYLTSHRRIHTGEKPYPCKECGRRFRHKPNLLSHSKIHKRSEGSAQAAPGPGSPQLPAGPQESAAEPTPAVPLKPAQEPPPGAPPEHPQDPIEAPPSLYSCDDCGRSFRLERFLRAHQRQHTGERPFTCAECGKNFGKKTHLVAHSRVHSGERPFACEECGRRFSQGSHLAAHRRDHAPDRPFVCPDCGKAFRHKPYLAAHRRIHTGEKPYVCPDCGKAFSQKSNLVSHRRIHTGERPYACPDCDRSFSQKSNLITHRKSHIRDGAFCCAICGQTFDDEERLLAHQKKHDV
UniProt Q96NA2: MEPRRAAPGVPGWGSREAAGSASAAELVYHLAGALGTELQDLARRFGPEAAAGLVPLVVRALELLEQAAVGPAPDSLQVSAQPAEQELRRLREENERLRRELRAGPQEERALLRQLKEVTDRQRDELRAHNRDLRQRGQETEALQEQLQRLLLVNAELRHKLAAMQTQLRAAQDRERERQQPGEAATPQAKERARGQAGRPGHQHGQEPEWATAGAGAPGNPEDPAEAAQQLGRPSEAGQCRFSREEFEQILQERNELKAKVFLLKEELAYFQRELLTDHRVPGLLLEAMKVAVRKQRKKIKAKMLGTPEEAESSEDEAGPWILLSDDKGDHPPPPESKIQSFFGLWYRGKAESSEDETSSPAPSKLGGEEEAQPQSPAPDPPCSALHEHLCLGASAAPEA
UniProt Q14498: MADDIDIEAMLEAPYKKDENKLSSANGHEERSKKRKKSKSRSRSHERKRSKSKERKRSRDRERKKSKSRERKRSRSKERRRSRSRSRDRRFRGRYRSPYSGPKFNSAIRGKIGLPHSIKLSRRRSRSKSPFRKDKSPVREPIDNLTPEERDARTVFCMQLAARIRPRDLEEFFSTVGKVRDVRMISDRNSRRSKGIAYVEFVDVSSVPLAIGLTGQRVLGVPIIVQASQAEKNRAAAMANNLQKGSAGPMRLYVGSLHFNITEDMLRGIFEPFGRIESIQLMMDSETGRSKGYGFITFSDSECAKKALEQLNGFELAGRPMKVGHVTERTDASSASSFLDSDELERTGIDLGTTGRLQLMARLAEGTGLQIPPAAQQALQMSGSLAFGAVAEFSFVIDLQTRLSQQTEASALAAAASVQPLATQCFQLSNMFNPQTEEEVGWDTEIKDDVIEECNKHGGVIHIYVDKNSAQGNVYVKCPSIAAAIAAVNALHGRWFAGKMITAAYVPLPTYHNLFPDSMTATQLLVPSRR
UniProt P51606: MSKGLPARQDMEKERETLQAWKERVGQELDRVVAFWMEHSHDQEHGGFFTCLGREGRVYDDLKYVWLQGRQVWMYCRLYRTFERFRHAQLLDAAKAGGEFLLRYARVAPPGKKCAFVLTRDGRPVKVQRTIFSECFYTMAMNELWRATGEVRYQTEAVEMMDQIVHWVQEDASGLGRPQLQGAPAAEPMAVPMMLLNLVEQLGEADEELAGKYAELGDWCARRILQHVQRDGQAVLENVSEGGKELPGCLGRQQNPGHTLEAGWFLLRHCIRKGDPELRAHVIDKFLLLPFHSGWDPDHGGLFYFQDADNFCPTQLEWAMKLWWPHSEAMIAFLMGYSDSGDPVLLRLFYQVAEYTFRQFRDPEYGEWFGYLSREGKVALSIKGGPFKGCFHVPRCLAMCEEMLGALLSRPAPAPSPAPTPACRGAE
UniProt P38159: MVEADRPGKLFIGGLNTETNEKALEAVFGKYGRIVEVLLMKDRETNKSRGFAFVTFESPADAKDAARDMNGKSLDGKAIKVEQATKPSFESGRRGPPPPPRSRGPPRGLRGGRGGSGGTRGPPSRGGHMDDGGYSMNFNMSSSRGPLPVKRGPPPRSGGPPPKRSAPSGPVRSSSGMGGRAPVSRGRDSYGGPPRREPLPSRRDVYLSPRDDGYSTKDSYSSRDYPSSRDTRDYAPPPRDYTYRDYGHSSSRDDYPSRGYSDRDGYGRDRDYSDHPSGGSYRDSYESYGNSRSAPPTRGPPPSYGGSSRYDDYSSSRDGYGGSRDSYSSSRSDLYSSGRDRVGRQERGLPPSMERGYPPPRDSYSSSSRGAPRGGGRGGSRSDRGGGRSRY
UniProt Q9H920: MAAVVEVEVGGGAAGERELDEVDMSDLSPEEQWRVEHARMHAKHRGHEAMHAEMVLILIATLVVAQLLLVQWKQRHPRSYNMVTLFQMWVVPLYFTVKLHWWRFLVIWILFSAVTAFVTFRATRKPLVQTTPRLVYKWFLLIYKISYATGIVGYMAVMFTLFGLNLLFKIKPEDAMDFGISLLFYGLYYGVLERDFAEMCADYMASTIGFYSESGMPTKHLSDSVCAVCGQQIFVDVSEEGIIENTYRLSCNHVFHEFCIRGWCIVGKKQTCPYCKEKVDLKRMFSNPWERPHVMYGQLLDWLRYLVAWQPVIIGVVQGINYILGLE
UniProt P40937, whole entry, looked up: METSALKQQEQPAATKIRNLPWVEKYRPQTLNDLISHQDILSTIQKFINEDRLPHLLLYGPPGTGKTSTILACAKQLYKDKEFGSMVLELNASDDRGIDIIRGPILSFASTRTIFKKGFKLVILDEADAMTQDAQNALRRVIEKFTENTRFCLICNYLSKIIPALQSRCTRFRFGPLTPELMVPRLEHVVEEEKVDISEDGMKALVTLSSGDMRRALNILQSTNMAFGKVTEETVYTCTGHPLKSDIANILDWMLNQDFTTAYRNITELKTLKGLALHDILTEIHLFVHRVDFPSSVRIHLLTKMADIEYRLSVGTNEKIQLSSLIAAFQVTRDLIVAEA
UniProt Q5TA31: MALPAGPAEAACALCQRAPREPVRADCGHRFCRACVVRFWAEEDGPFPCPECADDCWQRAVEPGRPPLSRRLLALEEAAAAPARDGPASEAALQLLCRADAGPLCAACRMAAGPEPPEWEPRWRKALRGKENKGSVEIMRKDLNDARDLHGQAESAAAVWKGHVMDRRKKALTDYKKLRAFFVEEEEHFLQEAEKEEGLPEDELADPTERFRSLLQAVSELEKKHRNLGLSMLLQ
UniProt Q5XPI4: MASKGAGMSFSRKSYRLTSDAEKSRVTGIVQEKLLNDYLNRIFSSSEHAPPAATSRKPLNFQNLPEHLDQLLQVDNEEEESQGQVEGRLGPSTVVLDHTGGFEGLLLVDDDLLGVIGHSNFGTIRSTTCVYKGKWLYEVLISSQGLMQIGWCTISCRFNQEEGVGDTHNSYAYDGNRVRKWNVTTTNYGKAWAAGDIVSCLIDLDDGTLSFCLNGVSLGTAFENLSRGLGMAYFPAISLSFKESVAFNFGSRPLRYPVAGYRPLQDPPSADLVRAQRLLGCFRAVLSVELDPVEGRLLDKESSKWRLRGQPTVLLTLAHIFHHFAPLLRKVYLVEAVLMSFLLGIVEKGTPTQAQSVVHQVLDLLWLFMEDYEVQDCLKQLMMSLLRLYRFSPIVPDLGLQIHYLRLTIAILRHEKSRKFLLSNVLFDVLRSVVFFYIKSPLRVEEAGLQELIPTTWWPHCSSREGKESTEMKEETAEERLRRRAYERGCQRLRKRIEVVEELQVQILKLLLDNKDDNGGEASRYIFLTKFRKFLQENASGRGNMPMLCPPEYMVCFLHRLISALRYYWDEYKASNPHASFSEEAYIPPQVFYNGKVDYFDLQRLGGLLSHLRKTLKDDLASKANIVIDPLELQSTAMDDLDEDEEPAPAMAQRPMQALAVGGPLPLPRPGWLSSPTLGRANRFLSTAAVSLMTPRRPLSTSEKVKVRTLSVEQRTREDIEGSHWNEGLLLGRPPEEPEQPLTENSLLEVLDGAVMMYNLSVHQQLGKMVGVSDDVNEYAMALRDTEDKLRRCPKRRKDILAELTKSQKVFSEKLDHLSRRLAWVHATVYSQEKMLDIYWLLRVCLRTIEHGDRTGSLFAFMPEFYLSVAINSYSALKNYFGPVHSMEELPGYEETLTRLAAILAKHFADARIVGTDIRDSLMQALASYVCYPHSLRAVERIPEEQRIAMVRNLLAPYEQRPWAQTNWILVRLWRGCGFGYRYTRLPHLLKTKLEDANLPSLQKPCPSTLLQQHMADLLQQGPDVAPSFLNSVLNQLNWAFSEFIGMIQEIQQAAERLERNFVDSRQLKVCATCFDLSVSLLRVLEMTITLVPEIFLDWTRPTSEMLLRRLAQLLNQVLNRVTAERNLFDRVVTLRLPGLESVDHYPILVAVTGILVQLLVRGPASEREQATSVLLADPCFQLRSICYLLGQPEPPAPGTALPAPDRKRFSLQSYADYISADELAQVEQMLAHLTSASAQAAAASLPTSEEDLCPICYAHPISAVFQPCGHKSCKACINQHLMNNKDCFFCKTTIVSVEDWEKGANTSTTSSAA
UniProt Q06330: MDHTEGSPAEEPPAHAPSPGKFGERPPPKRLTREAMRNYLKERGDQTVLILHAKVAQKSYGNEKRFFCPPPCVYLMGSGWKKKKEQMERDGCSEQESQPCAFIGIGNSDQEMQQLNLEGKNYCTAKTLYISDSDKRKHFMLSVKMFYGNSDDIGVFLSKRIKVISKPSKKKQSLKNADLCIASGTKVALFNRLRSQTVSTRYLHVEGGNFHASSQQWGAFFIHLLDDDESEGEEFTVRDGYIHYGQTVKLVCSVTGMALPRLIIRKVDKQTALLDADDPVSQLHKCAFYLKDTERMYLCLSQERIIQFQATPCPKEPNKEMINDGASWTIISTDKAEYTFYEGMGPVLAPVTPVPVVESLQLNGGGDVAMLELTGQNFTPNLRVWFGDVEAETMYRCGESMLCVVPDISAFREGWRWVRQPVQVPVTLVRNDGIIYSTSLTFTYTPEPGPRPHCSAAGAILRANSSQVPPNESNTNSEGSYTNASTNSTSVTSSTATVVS

This is one part of the list.

Compound in one test: Cc1sc2c(c1C)C(c1ccc(Cl)cc1)=N[C@@H](CC(=O)OC(C)(C)C)c1nnc(C)n1-2
Kind of test: log2 fold change, soluble protein after heating vs DMSO (PISA); higher = thermal stabilisation; K562 cells, 10 uM, 30 min; active = over 0.2 and 3.5 SD of the protein, either way, in both replicates (recomputed). The method, boiled down: (§1)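 Soluble protein was quantified by TMTpro 16plex LC-MS/MS after channel sums were equalised. It was obtained as the supernatant after 21,000xg for 90 min from pooled aliquots of K562 cells (2×10^6 cells/mL, 10 μM compound, 30 min) heated for 3 min across 48°C-58°C and extracted in PBS with 0.5% NP-40 at 4°C. Thermal stability values are relative to control samples and come from duplicates. They are given as log2 fold changes.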
In the case of RIDA (UniProt P52758), the log2 fold change was inactive: -0.067.
On the same count and under the same terms, the result for RINT1 (UniProt Q6NUQ1) reads inactive: 0.178; that for RNF14 (UniProt Q9UBS8), inactive: -0.013; that for RBX1 (UniProt P62877), inactive: 0.02.
On the same count and under the same terms, in the case of RNASEH2A (UniProt O75792) it was inactive: -0.025.
In the case of RECQL (UniProt P46063), the log2 fold change is inactive: -0.029.
With RMND5A (UniProt Q9H871), the log2 fold change is inactive: 0.024.
Same read-out and setting: in the case of RETSAT (UniProt Q6NUM9) it was inactive: -0.15; in that of RCN2 isoform 2 (UniProt Q14257), inactive: 0.009; in that of RNF149 (UniProt Q8NC42), inactive: 0.001.
Same read-out and setting: the result for RETREG2 (UniProt Q8NC44) reads inactive: 0.014.
The same measure, in the same setting: in the case of REPIN1 isoform 4 (UniProt Q9BWE0) it was inactive: 0.009; in that of RILP (UniProt Q96NA2), inactive: -0.003; in that of RNASET2 (UniProt O00584), inactive: -0.013.
For the target RBM39 (UniProt Q14498), the log2 fold change was inactive: 0.019.
As to RNASEH2B (UniProt Q5TBB1), the log2 fold change is inactive: -0.047.
RENBP (UniProt P51606): the log2 fold change is inactive: -0.04.
The same measure, in the same setting: the result for RIOK2 (UniProt Q9BVS4) reads inactive: 0.116.
The same measure, in the same setting: in the case of RBM4 (UniProt Q9BWF3) it was inactive: 0.009.
The same measure, in the same setting: in the case of RFC3 (UniProt P40938) it was inactive: -0.019.
Regarding RBMX (UniProt P38159), the log2 fold change was inactive: 0.031.
Still for that read-out and setting: in the case of RNF121 (UniProt Q9H920) it was inactive: -0.091.
Still for that read-out and setting: in the case of RCC1L (UniProt Q96I51) it was inactive: -0.018; in that of RFC5 (UniProt P40937), inactive: 0.001.
The same measure, in the same setting: in the case of RMC1 (UniProt Q96DM3) it was inactive: 0.019; in that of RNF126 (UniProt Q9BV68), inactive: 0.018.
As to RNF187 (UniProt Q5TA31), the log2 fold change is inactive: -0.083.
Same read-out and setting: the result for RNF123 isoform 2 (UniProt Q5XPI4) reads inactive: -0.038.
Same read-out and setting: in the case of RFT1 (UniProt Q96AA3) it was inactive: -0.034.
Take RBPJ (UniProt Q06330): the log2 fold change was inactive: 0.04.
The same measure, in the same setting: in the case of RIOX2 (UniProt Q8IUF8) it was inactive: 0.054.

Compound in the next test: c1ccc([C@@H]2C[C@H]2NC2CCNCC2)cc1
The test is described as above. The method, boiled down: as §1
With RIDA (UniProt P52758), the log2 fold change was inactive: 0.012.
On the same count and under the same terms, the result for RINT1 (UniProt Q6NUQ1) reads inactive: -0.02; that for RNF14 (UniProt Q9UBS8), inactive: 0.03; that for RBX1 (UniProt P62877), inactive: 0.014.
Turning to RNASEH2A (UniProt O75792), the log2 fold change is inactive: -0.01.
The same measure, in the same setting: the result for RECQL (UniProt P46063) reads inactive: -0.02.
On the same count and under the same terms, in the case of RMND5A (UniProt Q9H871) it was inactive: -0.019; in that of RETSAT (UniProt Q6NUM9), inactive: 0.042.
For the target RCN2 isoform 2 (UniProt Q14257), the log2 fold change was inactive: 0.003.
Still for that read-out and setting: the result for RNF149 (UniProt Q8NC42) reads inactive: -0.026; that for RETREG2 (UniProt Q8NC44), inactive: -0.046.
Same read-out and setting: in the case of REPIN1 isoform 4 (UniProt Q9BWE0) it was inactive: 0.025.
On to RILP (UniProt Q96NA2), for which the log2 fold change was inactive: -0.014.
For the target RNASET2 (UniProt O00584), the log2 fold change was inactive: 0.012.
On the same count and under the same terms, the result for RBM39 (UniProt Q14498) reads inactive: 0.158; that for RNASEH2B (UniProt Q5TBB1), inactive: -0.094.
Still for that read-out and setting: the result for RENBP (UniProt P51606) reads inactive: -0.027.
With RIOK2 (UniProt Q9BVS4), the log2 fold change is inactive: -0.009.
For RBM4 (UniProt Q9BWF3), the log2 fold change is inactive: 0.073.
Consider RFC3 (UniProt P40938), for which the log2 fold change was inactive: -0.074.
Same read-out and setting: in the case of RBMX (UniProt P38159) it was inactive: 0.054; in that of RNF121 (UniProt Q9H920), inactive: -0.016; in that of RCC1L (UniProt Q96I51), inactive: 0.019.
On the same count and under the same terms, in the case of RFC5 (UniProt P40937) it was inactive: -0.052; in that of RMC1 (UniProt Q96DM3), inactive: 0.063; in that of RNF126 (UniProt Q9BV68), inactive: 0.048.
Regarding RNF187 (UniProt Q5TA31), the log2 fold change is inactive: -0.033.
Turning to RNF123 isoform 2 (UniProt Q5XPI4), the log2 fold change was inactive: 0.002.
Same read-out and setting: the result for RFT1 (UniProt Q96AA3) reads inactive: 0.083; that for RBPJ (UniProt Q06330), inactive: 0.018.
On the same count and under the same terms, the result for RIOX2 (UniProt Q8IUF8) reads inactive: -0.21.
